No constants are given. Whether binding was seen depends on the method and setting. For part of these data: Binding seen in cells or lysates may run through a third protein. For part of these data: Binding calls can cover weak binding; strength is not graded here. Where a sequence is shown, tags or fusion partners need not be part of it.
Assays:
[1] = molecular target: purified recombinant Gβ1γ2 complex (baculovirus-expressed); test: GST pull-down of purified baculovirus-expressed Gβ1γ2, western blot with anti-Gβ1
[2] = molecular target: purified recombinant Gβ1γ2 complex (baculovirus-expressed); test: GST pull-down of purified complex, western blot
[3] = molecular target: in vitro translated Gαq; test: GST pull-down of in vitro translated 35S-labelled protein, autoradiography
[4] = molecular target: in vitro translated Gαi; test: as above
[5] = molecular target: in vitro translated Gαq; test: GST pull-down, autoradiography
[6] = molecular target: in vitro translated Gαi; test: GST pull-down, autoradiography

B1: GST-R7DEP (GST fusion of amino acids 34-124 of bovine RGS7) (protein, UniProt O46470 34-124, looked up, not shown: a dimerising Fc or GST)
chain: MQDEKNGIPIRTVKSFLSKIPSVFSGSDIVQWLIKNLTIEDPVEALHLGTLMAAHGYFFPISDHVLTLKDDGTFYRFQTPYFWPSNCWEPE
binding [1]: binds | binding [2]: binds | binding [3]: no binding | binding [4]: no binding | binding [5]: no binding | binding [6]: no binding

Source: US20100183584A1, “CONFORMATION AND ACTIVITY OF GBETA5 COMPLEXES” (University Of Miami, priority 2007, published 2010)
